# Measurements reported in PubChem BioAssay AID2551 (National Center for Advancing Translational Sciences (NCATS), 2010).
# By UniProt entry, the sequences of proteins in these tests, tags left out. Where a name states a change or a piece, a line headed by the entry shows the natural chain unless it says otherwise.
# UniProt P51450: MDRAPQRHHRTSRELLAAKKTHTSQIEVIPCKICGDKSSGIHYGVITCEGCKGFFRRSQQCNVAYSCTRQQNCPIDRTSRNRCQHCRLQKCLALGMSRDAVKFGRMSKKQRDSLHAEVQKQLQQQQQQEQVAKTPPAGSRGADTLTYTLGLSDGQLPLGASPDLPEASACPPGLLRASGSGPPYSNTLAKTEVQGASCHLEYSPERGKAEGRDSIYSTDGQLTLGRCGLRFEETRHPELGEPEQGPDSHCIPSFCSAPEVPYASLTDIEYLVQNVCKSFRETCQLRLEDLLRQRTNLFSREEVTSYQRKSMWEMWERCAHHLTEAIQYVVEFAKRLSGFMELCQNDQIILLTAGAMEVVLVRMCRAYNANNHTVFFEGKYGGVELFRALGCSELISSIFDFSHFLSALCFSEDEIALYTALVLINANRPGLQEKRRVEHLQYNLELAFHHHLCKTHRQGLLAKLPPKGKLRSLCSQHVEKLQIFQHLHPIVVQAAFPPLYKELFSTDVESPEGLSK
# Out of some 310,000 compounds screened, about 17,000 (5.5%) were called active. Inconclusive means that the source gave no clear call. Such entries were picked first, then a sample of the others. Calls come from the whole dose curve; as a rule, active = well fitted inhibition curve with a large enough effect; inconclusive = small, poorly fitted or top-dose-only effect, or effect the other way; inactive = no such curve, though single readings can be large or run the other way. A potency beside an inconclusive call is a rough fit, not a confirmed value.
# Target: Nuclear receptor ROR-gamma (Mus musculus) (UniProt P51450)
# Experiment: qHTS for inhibitors of ROR gamma transcriptional activity; note: nearly all actives have a fitted effect of over 60% in size
# Settings: Drosophila S2 Gal4-RORgamma UAS-luciferase reporter, 20 h; activity change, negative = inhibition: at 53.6 µM (top of the series)
# How it was run: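 Read-out: Photinus luciferase luminescence; inhibitors lower reporter signal. Insect Schneider cells with Gal4-ROR gamma fusion under metallothionein promoter, UAS reporter; 700 uM final copper sulfate induction, 20 hr, ambient temperature.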
# % is set by controls: 0 for no effect and ±100 for the full control effect; potency is the fitted concentration of half-maximal effect.
Compound,Potency,"activity change, negative = inhibition"
Cc1ccc(Oc2nc(CN3CCOCC3)nc3sc4c(c23)CCC(C)C4)cc1 (stereo not drawn),"inconclusive: 17.8 µM [inhibitor, partial curve, poor fit]",–
CCOC(=O)N/N=C1/C[C@@H](O)[C@@H](O)[C@@H]2[C@@H]3C(=O)N([C@@H](C)c4ccccc4)C(=O)[C@H]3CC[C@H]12,–,inactive: 4.14% [at 10 µM]
CCOC(=O)CSC1=C(C#N)C(c2ccc(Cl)cc2)C(C(=O)OC)C(=O)N1 (stereo not drawn),"inconclusive: 31.6 µM [inhibitor, single point]",–
Cc1cc2[nH]c3ccccc3c2cn1,inactive,–
COc1cc(/C=N/N=C(N)N)ccc1OCc1ccccc1Cl,"inconclusive: 35.5 µM [inhibitor, single point]",–
C/C(=N\NC(=O)c1[nH]c2c([N+](=O)[O-])cc(C)cc2c1-c1ccccc1)c1cccnc1,"inconclusive: 11.2 µM [inhibitor, single point]",–
O=C(Cc1cccs1)NCCCc1ccccc1,"inconclusive: 35.5 µM [inhibitor, single point]",–
COc1ccc(CCC(=O)NCCc2ccc(OC)c(OC)c2)cc1,"inconclusive: 2.82 µM [inhibitor, single point]",–
Cc1ccc(C(=O)/C=C/Nc2ccc3c(c2)OCO3)cc1,"inconclusive: 17.8 µM [inhibitor, single point]",–
COc1cc(NC(=O)c2ccc(F)cc2)ccc1NC(=O)c1cc2ccccc2o1,inactive,–
c1ccc(C2CCC(N3CCN(c4ccccc4)CC3)CC2)cc1 (stereo not drawn),inactive,–
COc1ccc(N2CCN(Cc3nc(N)nc(Nc4ccc(C)c(Cl)c4)n3)CC2)cc1,"inconclusive: 11.2 µM [inhibitor, single point]",–
O=C(NCCc1csc(-c2ccccc2)n1)c1c(F)cccc1Cl,"inconclusive: 35.5 µM [activator, single point]",–
C=CCSc1nnc2c(n1)[nH]c1c(C)cccc12,"inconclusive: 31.6 µM [inhibitor, single point]",–
CCOc1ccc(-c2cc(CCCC(=O)Nc3cc(OC)ccc3OC)no2)cc1,"inconclusive: 0.355 µM [inhibitor, full curve, poor fit]",–
Cc1[nH]nc2c1C(c1ccc(-c3ccc(Cl)cc3)o1)C(C#N)=C(N)O2 (stereo not drawn),"inconclusive: 31.6 µM [inhibitor, single point]",–
Nc1nnc(SCCCC(=O)c2ccc(Br)cc2)s1,"inconclusive: 5.62 µM [activator, single point]",–
CC(C)(C)c1ccc(/C=C/C(=O)c2ccc(NC3=NCCCS3)cc2)cc1,"inconclusive: 3.98 µM [inhibitor, full curve, poor fit]",–
COc1ccc(S(=O)(=O)N2CCC(C(=O)Nc3cccc(Cl)c3)CC2)cc1OC,"inconclusive: 15.8 µM [activator, single point]",–
O=C(O)/C(=C\c1ccccc1Cl)c1ccc(S(=O)(=O)N2CCCCC2)s1,"inconclusive: 35.5 µM [inhibitor, single point]",–
CCCCN(CCCC)C(=O)/C=C/c1cccc([N+](=O)[O-])c1,"inconclusive: 25.1 µM [activator, single point]",–
CCN(CC(=O)NCc1ccc(F)cc1)Cc1nc2ccccc2c(=O)[nH]1,active: 3.98 µM,–
C[C@@H](C(O)c1ccccc1)N(C)C(=O)CCc1ccccc1 (stereo partly drawn),inactive,–

Compound,Potency,"activity change, negative = inhibition"
COc1ccc(/C=C/C(=O)NC(=S)NN2CCCCC2c2cccnc2)cc1 (stereo not drawn),active: 7.08 µM,–
CN(CC(=O)Nc1ccc(F)cc1)C(=O)COC(=O)CCN1C(=O)C2CC=CCC2C1=O (stereo not drawn),inactive,–
CCN1CCc2c(sc(NC(=O)c3ccc(S(=O)(=O)N(C)c4ccccc4)cc3)c2C(=O)NC)C1,"inconclusive: 35.5 µM [inhibitor, single point]",–
CC(C)(C)n1ncc2c(=O)n(CC(=O)c3ccccc3)cnc21,"inconclusive: 0.891 µM [activator, single point]",–
COc1ccc2oc(-c3ccccc3)c(OC)c(=O)c2c1,"inconclusive: 12.6 µM [activator, full curve, poor fit]",–
CCOC(=O)C1CCN(C(=O)CCc2nnc3ccc(NCc4ccco4)nn23)CC1,inactive,–
COc1ccc(Cc2nnc(NC(=O)c3ccc(OC)c(OC)c3)s2)cc1OC,"inconclusive: 11.2 µM [inhibitor, partial curve]",–
CCOc1ccc(CC(=O)Nc2nccs2)cc1,inactive,–
O=C(COC(=O)/C=C/c1ccco1)NCc1ccc2c(c1)OCO2,"inconclusive: 0.141 µM [activator, full curve, poor fit]",–
Cc1cccc(NC(=O)C2CCCN(S(=O)(=O)c3c(C)nn(C)c3C)C2)n1 (stereo not drawn),"inconclusive: 20 µM [activator, single point]",–
COc1ccccc1-n1c(SCC(=O)c2ccc(O)cc2O)nc2cc([N+](=O)[O-])ccc21,"inconclusive: 20 µM [activator, single point]",–
O=C(Nc1ccc(CSc2ccccc2)cc1)c1ccc(CN2CCOCC2)cc1,"inconclusive: 12.6 µM [activator, partial curve]",–
Cn1c(-c2cc3c(C(F)(F)F)nn(C)c3s2)n[nH]c1=S,"inconclusive: 35.5 µM [inhibitor, partial curve, poor fit]",–
CCOc1ccccc1NC(=O)C(OC(=O)c1ccccc1O)c1ccccc1 (stereo not drawn),inactive,–
CCC(C)c1ccc(S(=O)(=O)Nc2cccnc2)cc1 (stereo not drawn),"inconclusive: 35.5 µM [activator, single point]",–
Cc1ccc(NC(=O)CCSc2nnnn2-c2ccc3c(c2)OCO3)cc1C,inactive,–
CCn1c(SCC(=O)Nc2ccc3c(c2)OCCO3)nnc1C1CC1,inactive,–
CCCCC(=O)Nc1sc2c(c1-c1nc3ccccc3s1)CCN(C(C)=O)C2,"inconclusive: 28.2 µM [activator, single point]",–
C=CCSc1ncc(C(=O)OCC)c(N)n1,inactive,–
Cn1c(CCN2CCOCC2)nc2cc(NC(=O)COc3ccc(Cl)cc3)ccc21,"inconclusive: 12.6 µM [activator, single point]",–
COC(=O)C1CSc2[nH]c(=O)sc2C1c1ccccc1 (stereo not drawn),"inconclusive: 11.2 µM [inhibitor, partial curve, poor fit]",–
COC(=O)c1sccc1N/N=C/c1ccc(OC)c(OC)c1OC,"inconclusive: 5.01 µM [activator, partial curve, poor fit]",–
O=C1N/C(=N\N=C\c2cccs2)SC1Cc1cccc(Cl)c1Cl (stereo not drawn),active: 0.316 µM,–

# Single records (already shown). Values in the order: Potency | activity change, negative = inhibition
# Cn1c(-c2cc3c(C(F)(F)F)nn(C)c3s2)n[nH]c1=S as listed: inconclusive: 35.5 µM [inhibitor, partial curve, poor fit] | –
# CCC(C)c1ccc(S(=O)(=O)Nc2cccnc2)cc1 (stereo not drawn) as listed: inconclusive: 35.5 µM [activator, single point] | –

# (more compounds)

Compound,Potency,"activity change, negative = inhibition"
CCN(CC)S(=O)(=O)c1ccc(O)c(NC(=O)c2ccc(N3CCOCC3)c([N+](=O)[O-])c2)c1,"inconclusive: 2.82 µM [activator, partial curve, poor fit]",–
C(=C1/CCCC2=C1Nc1ncnn1C2c1ccccc1)/c1ccccc1 (stereo not drawn),active: 2.82 µM,–
CC1=CN2C(=NC(=O)CC2(C)C(=O)N(CC(=O)NC2CCCC2)c2ccccc2C)C=C1 (stereo not drawn),"inconclusive: 1 µM [inhibitor, full curve, poor fit]",–
NC(=S)N1OC[C@@H]2COc3ccc4ccccc4c3[C@@H]21,"inconclusive: 35.5 µM [inhibitor, single point]",–
COc1ccc(/C=C/C(=O)c2ccccc2)cc1COc1ccc(F)cc1,"inconclusive: 20 µM [activator, single point]",–
CCOc1ccc(N2C(=O)CC(SCc3nc4ccccc4[nH]3)C2=O)cc1 (stereo not drawn),active: 11.2 µM,–
COc1ccc(NC(=O)COc2cccc3c2CCN(C)C3=O)c(OC)c1,inactive,–
CCOc1cc2[nH]c(=S)n(Cc3ccc(C(=O)NCCCOC)cc3)c(=O)c2cc1OCC,"inconclusive: 35.5 µM [inhibitor, single point]",–
COc1ccc(C2=NN(C(C#N)c3ccc(OC)c(OC)c3)C(c3ccccc3)C2)cc1 (stereo not drawn),"inconclusive: 25.1 µM [inhibitor, single point]",–
Cc1cc(N2CCOCC2)ccc1/C=C\[N+](=O)[O-],active: 6.31 µM,–
O=C(NNC(=S)Nc1ccc(Br)cc1)c1ccccc1,"inconclusive: 7940 µM [inhibitor, partial curve, poor fit]",–
CCOC(=O)C1CCCN(S(=O)(=O)c2c(C(=O)N3CCCCC3)c(C)n(C)c2C)C1 (stereo not drawn),inactive,–
O=S(=O)(NCc1ccccn1)c1cc(OCC(F)(F)F)ccc1OCC(F)(F)F,"inconclusive: 12.6 µM [inhibitor, single point]",–
Cc1cc(-c2ccccc2)nc2cc(C(=O)NCCCn3ccnc3)nn12,"inconclusive: 6.31 µM [activator, single point]",–
O=C(Nc1ccc(S(=O)(=O)NC2=NCCCCC2)cc1)c1ccco1,inactive,–
CSCCC(NC(=O)c1ccccc1)C(=O)OCC(=O)c1ccc[nH]1 (stereo not drawn),"inconclusive: 11.2 µM [activator, partial curve]",–
Nc1c(C(=O)O)ccc2c1C(=O)c1ccccc1C2=O,inactive,–
O=C1N(c2cccc(Cl)c2)C(c2ccc(Cl)cc2)N2CCCN12 (stereo not drawn),"inconclusive: 3.98 µM [activator, single point]",–
O=C(Nc1ccnn1C1CCN(C(=O)c2cccc(Cl)c2)CC1)C1CCOC1 (stereo not drawn),inactive,–
CCc1ccc(/C=C2/C(=O)N(c3ccccc3)C(=S)N2CC(=O)OC)s1,"inconclusive: 15.8 µM [inhibitor, single point]",–
COc1cc(/C(C)=N/NC(=O)CSc2nncn2C)ccc1OCc1ccccc1Cl,"inconclusive: 11.2 µM [activator, partial curve]",–
O=C(N/N=C(/CC(=O)c1cccs1)C(F)(F)F)c1ccc(O)cc1,active: 17.8 µM,–
